Values from PubChem BioAssay AID1259323 (Peter MacCallum Cancer Centre, 2017).
This is one part, drawn at random, of 715 deposited reagents. Over the whole deposit, 91 (13%) are marked active. 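Active pools lower the sustained TRPV4 phase but spare the early PAR2 peak; PAR2 agonist and dose are not stated; pools repeat across wells.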 No sequences are given here. Not stated in the record: the amount of reagent, the time to read-out.

Screen: 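Kinases required for PAR2 signalling to open the TRPV4 channel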 (primary screen)
Cells: human HEK293 cells stably carrying inducible TRPV4
Reagent: siRNA pool against human genes
Challenge: PAR2 activation; agonist identity and dose not given
Measurement: 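Signal of a calcium dye in live cells following PAR2 activation, plateau and early peak normalised to mock transfection on each plate, mean of duplicate plates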
Direction: TRPV4 plateau calcium, % of mock: higher = stronger sustained TRPV4 calcium entry than mock; PAR2 peak calcium, % of mock: higher = stronger early PAR2 calcium response than mock
Call rule: 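Active if plateau calcium is under 90% of mock and early peak calcium stays over 79% of mock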

| target gene | TRPV4 plateau calcium, % of mock | PAR2 peak calcium, % of mock | Call |
| --- | --- | --- | --- |
| HSPB8 (heat shock protein family B (small) member 8) | 107 | 99.1 | inactive |
| ROCK2 (Rho associated coiled-coil containing protein kinase 2) | 92.4 | 97 | inactive |
| PCK2 (phosphoenolpyruvate carboxykinase 2, mitochondrial) | 107 | 99.7 | inactive |
| PMVK (phosphomevalonate kinase) | 95.6 | 97.1 | inactive |
| MYLK (myosin light chain kinase) | 98.6 | 99.7 | inactive |
| MAPKAPK2 (MAPK activated protein kinase 2) | 89.2 | 91 | active |
| PIP5K1C (phosphatidylinositol-4-phosphate 5-kinase type 1 gamma) | 98.9 | 100 | inactive |
| MAP2K4 (mitogen-activated protein kinase kinase 4) | 97.4 | 96.7 | inactive |
| CAMKK2 (calcium/calmodulin dependent protein kinase kinase 2) | 101 | 102 | inactive |
| IGF2R (insulin like growth factor 2 receptor) | 86.3 | 98.1 | active |
| NUAK2 (NUAK family kinase 2) | 98.9 | 97.7 | inactive |
| CAMK2B (calcium/calmodulin dependent protein kinase II beta) | 112 | 104 | inactive |
| WNK3 (WNK lysine deficient protein kinase 3) | 92.2 | 98 | inactive |
| SKAP1 (src kinase associated phosphoprotein 1) | 87.5 | 86.4 | active |
| PIK3R4 (phosphoinositide-3-kinase regulatory subunit 4) | 88.1 | 91.9 | active |
| NME3 (NME/NM23 nucleoside diphosphate kinase 3) | 111 | 106 | inactive |
| IRAK3 (interleukin 1 receptor associated kinase 3) | 99 | 96.9 | inactive |
| CLK3 (CDC like kinase 3) | 99 | 100 | inactive |
| ERBB2 (erb-b2 receptor tyrosine kinase 2) | 89.4 | 86.7 | active |
| PRKCI (protein kinase C iota) | 106 | 101 | inactive |
| MARK4 (microtubule affinity regulating kinase 4) | 93 | 96.6 | inactive |
| PIK3CG | 93.6 | 101 | inactive |
| DAPK2 (death associated protein kinase 2) | 109 | 105 | inactive |
| FGFR3 (fibroblast growth factor receptor 3) | 93.9 | 97.7 | inactive |
| FGFR1 (fibroblast growth factor receptor 1) | 102 | 96.6 | inactive |
| PRKCD (protein kinase C delta) | 76.3 | 80.6 | active |
| BTK (Bruton tyrosine kinase) | 101 | 95.9 | inactive |
| FN3KRP (fructosamine 3 kinase related protein) | 104 | 98.5 | inactive |
| PSTK (phosphoseryl-tRNA kinase) | 98.4 | 98.4 | inactive |
| FLT4 (fms related receptor tyrosine kinase 4) | 126 | 108 | inactive |
| PRKAR1A | 98.9 | 83.3 | inactive |
| MYO3A (myosin IIIA) | 94.7 | 91.4 | inactive |
| PHKG1 (phosphorylase kinase catalytic subunit gamma 1) | 97.3 | 91.6 | inactive |
| NRK (Nik related kinase) | 99 | 107 | inactive |
| PINK1 (PTEN induced kinase 1) | 101 | 97.8 | inactive |
| HCK (HCK proto-oncogene, Src family tyrosine kinase) | 89.6 | 93.1 | active |
| MAST1 (microtubule associated serine/threonine kinase 1) | 86.4 | 91.7 | active |
| RIPK3 (receptor interacting serine/threonine kinase 3) | 90.7 | 96.1 | inactive |
| GCK (glucokinase) | 77.4 | 79.4 | active |
| PIK3R5 (phosphoinositide-3-kinase regulatory subunit 5) | 83 | 83.9 | active |
| DGKQ (diacylglycerol kinase theta) | 104 | 101 | inactive |
| ERBB3 (erb-b2 receptor tyrosine kinase 3) | 112 | 109 | inactive |
| CDC42BPA (CDC42 binding protein kinase alpha) | 103 | 100 | inactive |
| PRKDC (protein kinase, DNA-activated, catalytic subunit) | 97.8 | 97.5 | inactive |
| PIK3R1 (phosphoinositide-3-kinase regulatory subunit 1) | 112 | 107 | inactive |
| NME7 (NME/NM23 family member 7) | 102 | 101 | inactive |
| DDR2 (discoidin domain receptor tyrosine kinase 2) | 95.1 | 104 | inactive |
| HIPK4 (homeodomain interacting protein kinase 4) | 100 | 102 | inactive |
| CDK4 (cyclin dependent kinase 4) | 99.2 | 98.7 | inactive |
| EPHB2 (EPH receptor B2) | 91.8 | 87.6 | inactive |
| PRKAG1 (protein kinase AMP-activated non-catalytic subunit gamma 1) | 91.5 | 89.3 | inactive |
| SIK1 (salt inducible kinase 1) | 103 | 98.6 | inactive |
| ADCK2 (aarF domain containing kinase 2) | 103 | 104 | inactive |
| PRKAB1 (protein kinase AMP-activated non-catalytic subunit beta 1) | 89.5 | 96.3 | active |
| TAF1 (TATA-box binding protein associated factor 1) | 96.8 | 95.5 | inactive |
| TTK (TTK protein kinase) | 86.7 | 89.3 | active |
| MKNK2 (MAPK interacting serine/threonine kinase 2) | 94.1 | 96.1 | inactive |
| TYRO3 (TYRO3 protein tyrosine kinase) | 99.1 | 97.6 | inactive |
| SRP72 (signal recognition particle 72) | 87.2 | 107 | active |
| PIK3C2G | 95 | 91 | inactive |
| TNK1 (tyrosine kinase non receptor 1) | 99.8 | 96.4 | inactive |
| PIM3 (Pim-3 proto-oncogene, serine/threonine kinase) | 94.9 | 96.6 | inactive |
| ERN2 (endoplasmic reticulum to nucleus signaling 2) | 105 | 101 | inactive |
| CDK10 (cyclin dependent kinase 10) | 105 | 103 | inactive |
| PACSIN1 (protein kinase C and casein kinase substrate in neurons 1) | 115 | 106 | inactive |
| PKN1 (protein kinase N1) | 93.3 | 100 | inactive |
| PI4K2B (phosphatidylinositol 4-kinase type 2 beta) | 95 | 79.3 | inactive |
| PKM (pyruvate kinase M1/2) | 121 | 108 | inactive |
| FYN (FYN proto-oncogene, Src family tyrosine kinase) | 98.2 | 103 | inactive |
| ROCK1 (Rho associated coiled-coil containing protein kinase 1) | 105 | 97.3 | inactive |
| SRPK3 (SRSF protein kinase 3) | 105 | 107 | inactive |
| LMTK1 (lemur tail kinase 1) | 104 | 101 | inactive |
| TAOK2 (TAO kinase 2) | 98.8 | 92.8 | inactive |
| CDKL5 (cyclin dependent kinase like 5) | 122 | 115 | inactive |
| MAP2K3 (mitogen-activated protein kinase kinase 3) | 97.9 | 93.8 | inactive |
| NAGK (N-acetylglucosamine kinase) | 93.9 | 95.3 | inactive |
| CSF1R (colony stimulating factor 1 receptor) | 102 | 99.3 | inactive |
| LATS1 (large tumor suppressor kinase 1) | 110 | 102 | inactive |
| CPNE3 (copine 3) | 109 | 105 | inactive |
| INSRR (insulin receptor related receptor) | 98 | 106 | inactive |
| AK1 (adenylate kinase 1) | 114 | 105 | inactive |
| UCKL1 (uridine-cytidine kinase 1 like 1) | 85 | 87.5 | active |
| MAPK3 (mitogen-activated protein kinase 3) | 103 | 102 | inactive |
| MAP3K7 (mitogen-activated protein kinase kinase kinase 7) | 109 | 96.4 | inactive |

Reagents listed above with an active call, once more:
| target gene | TRPV4 plateau calcium, % of mock | PAR2 peak calcium, % of mock | Call |
| --- | --- | --- | --- |
| MAPKAPK2 (MAPK activated protein kinase 2) | 89.2 | 91 | active |
| IGF2R (insulin like growth factor 2 receptor) | 86.3 | 98.1 | active |
| SKAP1 (src kinase associated phosphoprotein 1) | 87.5 | 86.4 | active |
| PIK3R4 (phosphoinositide-3-kinase regulatory subunit 4) | 88.1 | 91.9 | active |
| ERBB2 (erb-b2 receptor tyrosine kinase 2) | 89.4 | 86.7 | active |
| PRKCD (protein kinase C delta) | 76.3 | 80.6 | active |
| HCK (HCK proto-oncogene, Src family tyrosine kinase) | 89.6 | 93.1 | active |
| MAST1 (microtubule associated serine/threonine kinase 1) | 86.4 | 91.7 | active |
| GCK (glucokinase) | 77.4 | 79.4 | active |
| PIK3R5 (phosphoinositide-3-kinase regulatory subunit 5) | 83 | 83.9 | active |
| PRKAB1 (protein kinase AMP-activated non-catalytic subunit beta 1) | 89.5 | 96.3 | active |
| TTK (TTK protein kinase) | 86.7 | 89.3 | active |
| SRP72 (signal recognition particle 72) | 87.2 | 107 | active |
| UCKL1 (uridine-cytidine kinase 1 like 1) | 85 | 87.5 | active |
